From patent US8889903B2, “Synthesis of rare earth metal extractant” (Shin-Etsu Chemical Co., Ltd., priority 2010, dated 2014) come the findings set out here.

SMILES strings stand for the structures. Entries after “also recorded” stand apart in the source; their conditions may differ.

This series in a line: Extraction/separation test (solvent extraction of a Pr/Nd mixture). As to conditions: organic phase 0.3 mol/L in hexanol versus aqueous 0.1 mol/L Pr+Nd, 20° C.
Consider `CCCCCCCCN(CCCCCCCC)C(=O)COCC(=O)O` [Comparative Example 3, N,N-dioctyl-3-oxapentane-1,5-amic acid, reference compound], for which the Phase separation result was “indefinite phase separation”.

With `CCCCCCCCN(CCCCCCCC)C(=O)COCC(=O)O` [Example 2, N,N-dioctyl-3-oxapentane-1,5-amic acid], the Phase separation entry is given as “satisfactory; also recorded: definite”.

With `CCCCCCCCN(CCCCCCCC)C(=O)COCC(=O)O` [Example 4, N,N-dioctyl-3-oxapentane-1,5-amic acid], the Phase separation entry is reported as “satisfactory; also recorded: definite”.

Turning to `CCCCCCCCN(CCCCCCCC)C(=O)COCC(=O)O` [Example 5, N,N-dioctyl-3-oxapentane-1,5-amic acid], the Phase separation result is listed as “satisfactory; also recorded: definite”.
